Data as given in patent publication US7314858B2, “Retrocyclins: antiviral and antimicrobial peptides” (priority 2001, dated 2008).
For part of these data: Part of at least one peptide drawing is inferred or uncertain, most often the ends. Some of these results come from one statement about several compounds together. Some compounds share one range, which may span the group rather than tell each member. Where a SMILES comes first, the peptide text is derived from it. Bridges are numbered along the chain shown (N, C = ends). [ ]: non-standard residue; d: D form.

Tests used:
Assay type in all cases: cell-based
HIV-1 strain IIIB [1] = test: HIV-1 IIIB infection of H9 cells, p24 antigen ELISA; conditions: 20 μg/ml peptide, MOI 10^-2, 9 days post-inoculation
Procedure: FIG. 1. Circular minidefensins reduce HIV-1 infection of H9 cells. HIV-I strain IIIB (MOI=10^−2) was incubated with 2.5×10^5 H9 cells in the presence or absence of 20 μg/ml RTD-1, RTD-2 or RTD-3. p24 antigen release was monitored by ELISA on days 3, 6, and 9. Assay sensitivity=10 pg/ml.
Immortalized CD4^+ H9 cells, which are permissive for infection with this strain, were maintained in RPMI supplemented with 10% heat-inactivated fetal calf serum (FCS), 10 mM HEPES, 2 mM glutamine, 100 U of penicillin/ml, and 10 μg of streptomycin/ml (R10 media). Cells (2.5×10^5/100 μl) were incubated with virus (multiplicity of infection (MOI)=10^−2) in the presence or absence of 20 μg/ml RTD-1, RTD-2 or RTD-3 for 3 hrs at 37° C./5% CO2. The cells were washed in R10 media, seeded in 48-well tissue culture plates in 1 ml R10 media, and incubated at 37° C./5% CO2 for 9 days. Aliquots of cell supernatant were removed at the specified time points and analyzed by a sensitive ELISA (DuPont NEN) that quantitates p24 antigen of HIV-1. The three circular rhesus minidefensins were similarly active, inhibiting HIV-1 by 100-1000 fold by 9 days post-inoculation (note the logarithmic scale). […]

HIV-1 strain JR-CSF = test: HIV-1 JR-CSF infection of CD4+ PBMC, p24 antigen ELISA; conditions: JR-CSF (R5), peptide 10-20 μg/ml
Procedure: FIG. 5A-C. Anti-HIV-1 activity of retrocyclin. Two strains of HIV-1 and two types of human target cells were used. The IIIB strain is T-cell tropic (X4) and utilizes the CXCR4 co-receptor for entry; the JR-CSF strain is M-tropic (R5) and uses CCR5 for entry. PBMC signifies CD4^+-selected peripheral blood mononuclear cells. […] (A) Two concentrations of retrocyclin (2 μg/ml, 20 μg/ml), 20 μg/ml of the Rhesus circular defensin “RTD-1”, and 20 μg/ml of a horseshoe crab-derived peptide “T140”, reported to only prevent X4 infections, were tested in antiviral assays of against strain IIIB in H9 cells (n=2-6 per peptide; error bars indicate SEM). (B) To confirm our results with primary human cells, similar assays were performed utilizing IIIB virus and CD4^+ PBMC or (C) JR-CSF virus and CD4^+ PBMC. Peptides were not cytotoxic at indicated concentrations, measured by trypan blue exclusion. Average of duplicate experiments are reported for studies with PBMCs. Assay sensitivity=10 pg/ml.
Either HIV-1-permissive H9 cells were used as targets, or primary CD4^+ lymphocytes from HIV-1-seronegative donors generated from freshly purified peripheral blood mononuclear cells (PBMC) stimulated with a CD3-CD8 bispecific monoclonal antibody. After approximately 7 days, when 98% of these cells co-expressed CD3 and CD4, they were infected with HIV-1 with or without retrocyclin or other test peptide. […]

HIV-1 strain IIIB [2] = test: HIV-1 IIIB infection of CD4+ PBMC, p24 antigen ELISA; conditions: IIIB (X4), peptide 10-20 μg/ml
Procedure: FIG. 5A-C. Anti-HIV-1 activity of retrocyclin. Two strains of HIV-1 and two types of human target cells were used. The IIIB strain is T-cell tropic (X4) and utilizes the CXCR4 co-receptor for entry; the JR-CSF strain is M-tropic (R5) and uses CCR5 for entry. PBMC signifies CD4^+-selected peripheral blood mononuclear cells. […] (A) Two concentrations of retrocyclin (2 μg/ml, 20 μg/ml), 20 μg/ml of the Rhesus circular defensin “RTD-1”, and 20 μg/ml of a horseshoe crab-derived peptide “T140”, reported to only prevent X4 infections, were tested in antiviral assays of against strain IIIB in H9 cells (n=2-6 per peptide; error bars indicate SEM). (B) To confirm our results with primary human cells, similar assays were performed utilizing IIIB virus and CD4^+ PBMC or (C) JR-CSF virus and CD4^+ PBMC. […] Average of duplicate experiments are reported for studies with PBMCs. Assay sensitivity=10 pg/ml.
Either HIV-1-permissive H9 cells were used as targets, or primary CD4^+ lymphocytes from HIV-1-seronegative donors generated from freshly purified peripheral blood mononuclear cells (PBMC) stimulated with a CD3-CD8 bispecific monoclonal antibody. […]
Examining the effect of adding retrocyclin at various times pre- and post-HIV-1 infection. […] Retrocyclin (20 μg/ml) was added back to some of the cultures at time points specified in FIG. 6 and infection was monitored by p24 ELISA as previously described. […]

Row | SMILES | inhibition of HIV-1 (p24 antigen) (HIV-1 strain IIIB [1]) | inhibition of HIV-1 replication (p24) (HIV-1 strain JR-CSF) | inhibition of HIV-1 replication (p24) (HIV-1 strain IIIB [2])
1 | CC[C@H](C)[C@@H]1NC(=O)[C@@H]2CSSC[C@H](NC(=O)[C@H](CCCNC(=N)N)NC(=O)[C@@H]3CSSC[C@H](NC1=O)C(=O)N[C@@H]([C@@H](C)O)C(=O)N[C@@H](CCCNC(=N)N)C(=O)NCC(=O)N[C@@H](Cc1ccccc1)C(=O)N3)C(=O)N[C@@H](CC(C)C)C(=O)N[C@H]1CSSC[C@H](NC(=O)[C@H](C(C)C)NC(=O)CNC(=O)[C@H](CCCNC(=N)N)NC(=O)[C@H](CCCNC(=N)N)NC1=O)C(=O)N[C@@H](CCCNC(=N)N)C(=O)N2 [RTD-1, reference compound] (cyclo(GFCRCLCRRGVCRCICTR); disulfide 3-16, 5-14, 7-12) | 100-1000 fold | – | –
2 | CC[C@@H](C)[C@H]1NC(=O)CNC(=O)[C@@H](CCCNC(=N)N)NC(=O)CNC(=O)[C@H]2CSSC[C@@H](NC1=O)C(=O)N[C@H](CCCNC(=N)N)C(=O)N[C@@H]1CSSC[C@@H](NC(=O)[C@@H](CCCNC(=N)N)NC(=O)[C@H]3CSSC[C@@H](NC(=O)[C@@H]([C@H](C)CC)NC1=O)C(=O)NCC(=O)N[C@H](CCCNC(=N)N)C(=O)NCC(=O)N[C@H]([C@H](C)CC)C(=O)N3)C(=O)N[C@H]([C@H](C)CC)C(=O)N2 [RC-112, enantio-retrocyclin] (cyclo(G[dI][dC][dR][dC][dI][dC]G[dR]G[dI][dC][dR][dC][dI][dC]G[dR]); disulfide 3-16, 5-14, 7-12) | – | relatively ineffective | relatively ineffective
